Laboratory results published in the supplement of paper PMC12819154, “High-throughput peptide-centric local stability assay extends protein–ligand identification to membrane proteins, tissues and bacteria” (Nature Structural & Molecular Biology, 2025).
Some of the results follow. Most entries show no effect beyond the scatter of the controls.

Protein sequences, listed by entry. Tags and fused reporters are not part of them. Lines headed by an entry give the natural chain unless they say otherwise; changes in a name come on top.
UniProt Q9D662: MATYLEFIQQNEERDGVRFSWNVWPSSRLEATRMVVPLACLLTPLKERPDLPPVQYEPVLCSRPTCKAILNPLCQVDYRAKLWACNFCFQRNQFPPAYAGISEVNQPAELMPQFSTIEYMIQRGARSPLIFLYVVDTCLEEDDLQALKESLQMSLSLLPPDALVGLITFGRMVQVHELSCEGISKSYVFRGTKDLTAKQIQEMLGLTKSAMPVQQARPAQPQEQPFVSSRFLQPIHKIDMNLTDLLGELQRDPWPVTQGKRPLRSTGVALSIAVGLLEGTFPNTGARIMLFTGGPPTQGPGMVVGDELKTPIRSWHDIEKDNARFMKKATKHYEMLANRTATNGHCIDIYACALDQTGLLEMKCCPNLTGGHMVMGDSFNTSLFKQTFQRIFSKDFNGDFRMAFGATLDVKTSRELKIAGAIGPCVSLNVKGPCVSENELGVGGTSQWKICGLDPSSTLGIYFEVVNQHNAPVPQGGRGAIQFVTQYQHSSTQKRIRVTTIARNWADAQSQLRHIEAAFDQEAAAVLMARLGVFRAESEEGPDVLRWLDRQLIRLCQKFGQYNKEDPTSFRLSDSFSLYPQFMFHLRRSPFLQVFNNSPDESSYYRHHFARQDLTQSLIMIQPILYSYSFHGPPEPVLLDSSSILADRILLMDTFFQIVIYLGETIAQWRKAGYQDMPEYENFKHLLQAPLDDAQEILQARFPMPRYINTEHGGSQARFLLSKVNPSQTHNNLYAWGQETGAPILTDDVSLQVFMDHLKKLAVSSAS
UniProt Q9D9I4: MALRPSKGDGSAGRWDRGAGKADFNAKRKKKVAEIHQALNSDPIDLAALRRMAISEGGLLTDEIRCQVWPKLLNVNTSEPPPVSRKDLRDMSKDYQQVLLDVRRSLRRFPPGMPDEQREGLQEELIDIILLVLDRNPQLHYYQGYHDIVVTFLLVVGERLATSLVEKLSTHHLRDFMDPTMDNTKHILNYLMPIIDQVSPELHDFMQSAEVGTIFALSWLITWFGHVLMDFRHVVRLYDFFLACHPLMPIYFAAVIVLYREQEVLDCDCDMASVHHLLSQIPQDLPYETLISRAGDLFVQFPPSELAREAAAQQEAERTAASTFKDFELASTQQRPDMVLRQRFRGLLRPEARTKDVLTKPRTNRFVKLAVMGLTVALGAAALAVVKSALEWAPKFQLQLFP
UniProt Q9D8C8: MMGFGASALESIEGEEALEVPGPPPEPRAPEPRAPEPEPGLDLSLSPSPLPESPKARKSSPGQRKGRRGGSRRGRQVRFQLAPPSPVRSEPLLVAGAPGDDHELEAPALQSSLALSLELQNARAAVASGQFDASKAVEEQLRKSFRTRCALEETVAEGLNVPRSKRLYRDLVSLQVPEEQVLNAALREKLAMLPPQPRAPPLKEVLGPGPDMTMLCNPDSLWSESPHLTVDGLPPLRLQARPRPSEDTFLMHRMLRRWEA
UniProt Q9D7B1: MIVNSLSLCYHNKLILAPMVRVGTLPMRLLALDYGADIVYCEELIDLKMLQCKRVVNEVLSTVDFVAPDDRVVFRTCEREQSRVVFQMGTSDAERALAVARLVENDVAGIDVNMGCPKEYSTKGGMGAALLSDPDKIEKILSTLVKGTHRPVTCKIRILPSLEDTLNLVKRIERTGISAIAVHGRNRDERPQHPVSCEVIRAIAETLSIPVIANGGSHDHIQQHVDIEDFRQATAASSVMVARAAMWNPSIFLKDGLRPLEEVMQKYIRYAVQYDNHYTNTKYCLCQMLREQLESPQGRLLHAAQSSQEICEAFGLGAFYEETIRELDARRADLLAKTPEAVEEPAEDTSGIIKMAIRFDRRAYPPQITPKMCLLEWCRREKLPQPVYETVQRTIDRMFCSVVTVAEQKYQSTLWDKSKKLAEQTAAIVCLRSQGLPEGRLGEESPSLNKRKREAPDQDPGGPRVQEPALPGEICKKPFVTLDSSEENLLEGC
UniProt Q9D844: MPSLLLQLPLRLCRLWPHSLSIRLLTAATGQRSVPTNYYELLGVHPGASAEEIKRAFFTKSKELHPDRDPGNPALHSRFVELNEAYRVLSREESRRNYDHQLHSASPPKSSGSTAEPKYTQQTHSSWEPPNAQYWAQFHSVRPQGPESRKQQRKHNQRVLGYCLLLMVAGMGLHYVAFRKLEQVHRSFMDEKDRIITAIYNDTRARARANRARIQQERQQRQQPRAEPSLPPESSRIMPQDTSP
UniProt Q9D7X3: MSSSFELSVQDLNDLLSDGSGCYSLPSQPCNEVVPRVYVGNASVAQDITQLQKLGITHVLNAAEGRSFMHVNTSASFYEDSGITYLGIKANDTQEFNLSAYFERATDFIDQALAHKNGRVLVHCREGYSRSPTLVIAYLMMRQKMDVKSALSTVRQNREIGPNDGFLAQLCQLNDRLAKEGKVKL
UniProt Q9D864, whole entry: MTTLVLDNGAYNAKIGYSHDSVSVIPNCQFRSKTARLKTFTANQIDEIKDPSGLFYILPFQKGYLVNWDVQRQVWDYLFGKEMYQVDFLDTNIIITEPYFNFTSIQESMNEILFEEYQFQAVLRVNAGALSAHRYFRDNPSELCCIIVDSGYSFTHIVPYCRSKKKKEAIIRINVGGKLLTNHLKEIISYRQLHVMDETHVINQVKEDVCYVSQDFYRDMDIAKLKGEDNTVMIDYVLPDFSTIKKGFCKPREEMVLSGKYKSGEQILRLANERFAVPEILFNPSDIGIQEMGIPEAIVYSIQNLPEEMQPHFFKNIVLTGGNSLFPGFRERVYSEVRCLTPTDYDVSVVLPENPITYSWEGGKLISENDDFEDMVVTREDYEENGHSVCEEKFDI
UniProt Q9D3R9: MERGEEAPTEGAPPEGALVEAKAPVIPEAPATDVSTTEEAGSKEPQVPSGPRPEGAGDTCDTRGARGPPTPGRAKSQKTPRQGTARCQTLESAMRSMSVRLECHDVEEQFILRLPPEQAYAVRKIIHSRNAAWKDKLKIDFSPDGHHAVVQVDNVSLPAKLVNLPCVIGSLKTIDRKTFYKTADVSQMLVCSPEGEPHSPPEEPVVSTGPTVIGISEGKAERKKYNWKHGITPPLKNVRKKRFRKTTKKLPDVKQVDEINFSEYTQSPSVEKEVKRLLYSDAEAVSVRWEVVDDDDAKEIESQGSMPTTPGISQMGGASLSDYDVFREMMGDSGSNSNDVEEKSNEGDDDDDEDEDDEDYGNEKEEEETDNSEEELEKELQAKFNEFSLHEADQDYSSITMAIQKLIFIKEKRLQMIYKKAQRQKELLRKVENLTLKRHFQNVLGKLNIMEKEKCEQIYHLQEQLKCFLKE
UniProt Q9D7N9: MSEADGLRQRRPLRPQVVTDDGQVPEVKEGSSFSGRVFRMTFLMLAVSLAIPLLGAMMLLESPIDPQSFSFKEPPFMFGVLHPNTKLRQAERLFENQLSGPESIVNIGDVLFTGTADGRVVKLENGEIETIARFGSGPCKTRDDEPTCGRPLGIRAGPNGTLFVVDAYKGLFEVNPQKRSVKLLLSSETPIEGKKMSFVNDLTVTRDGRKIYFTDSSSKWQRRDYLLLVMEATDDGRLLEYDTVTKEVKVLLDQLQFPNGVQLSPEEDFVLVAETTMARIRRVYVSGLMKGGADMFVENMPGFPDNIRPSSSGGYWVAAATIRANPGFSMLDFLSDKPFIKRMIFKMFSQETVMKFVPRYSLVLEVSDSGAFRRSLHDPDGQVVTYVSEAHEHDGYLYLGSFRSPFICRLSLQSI
UniProt Q9D504: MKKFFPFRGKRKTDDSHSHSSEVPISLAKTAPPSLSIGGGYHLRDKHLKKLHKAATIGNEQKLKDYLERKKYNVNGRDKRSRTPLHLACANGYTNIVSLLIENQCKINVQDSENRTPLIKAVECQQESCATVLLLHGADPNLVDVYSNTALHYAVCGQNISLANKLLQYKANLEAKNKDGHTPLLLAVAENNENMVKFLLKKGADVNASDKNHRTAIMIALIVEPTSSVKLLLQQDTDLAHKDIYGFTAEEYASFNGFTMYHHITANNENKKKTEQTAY
UniProt Q9DAM5: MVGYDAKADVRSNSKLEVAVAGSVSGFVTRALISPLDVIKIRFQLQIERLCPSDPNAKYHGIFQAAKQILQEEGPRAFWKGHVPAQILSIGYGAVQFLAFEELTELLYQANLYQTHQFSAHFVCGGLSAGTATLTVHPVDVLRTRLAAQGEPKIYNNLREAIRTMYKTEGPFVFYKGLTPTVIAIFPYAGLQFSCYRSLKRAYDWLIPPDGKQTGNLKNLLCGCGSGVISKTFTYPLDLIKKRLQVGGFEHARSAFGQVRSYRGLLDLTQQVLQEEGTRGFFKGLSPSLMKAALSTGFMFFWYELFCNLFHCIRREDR
UniProt Q9D486: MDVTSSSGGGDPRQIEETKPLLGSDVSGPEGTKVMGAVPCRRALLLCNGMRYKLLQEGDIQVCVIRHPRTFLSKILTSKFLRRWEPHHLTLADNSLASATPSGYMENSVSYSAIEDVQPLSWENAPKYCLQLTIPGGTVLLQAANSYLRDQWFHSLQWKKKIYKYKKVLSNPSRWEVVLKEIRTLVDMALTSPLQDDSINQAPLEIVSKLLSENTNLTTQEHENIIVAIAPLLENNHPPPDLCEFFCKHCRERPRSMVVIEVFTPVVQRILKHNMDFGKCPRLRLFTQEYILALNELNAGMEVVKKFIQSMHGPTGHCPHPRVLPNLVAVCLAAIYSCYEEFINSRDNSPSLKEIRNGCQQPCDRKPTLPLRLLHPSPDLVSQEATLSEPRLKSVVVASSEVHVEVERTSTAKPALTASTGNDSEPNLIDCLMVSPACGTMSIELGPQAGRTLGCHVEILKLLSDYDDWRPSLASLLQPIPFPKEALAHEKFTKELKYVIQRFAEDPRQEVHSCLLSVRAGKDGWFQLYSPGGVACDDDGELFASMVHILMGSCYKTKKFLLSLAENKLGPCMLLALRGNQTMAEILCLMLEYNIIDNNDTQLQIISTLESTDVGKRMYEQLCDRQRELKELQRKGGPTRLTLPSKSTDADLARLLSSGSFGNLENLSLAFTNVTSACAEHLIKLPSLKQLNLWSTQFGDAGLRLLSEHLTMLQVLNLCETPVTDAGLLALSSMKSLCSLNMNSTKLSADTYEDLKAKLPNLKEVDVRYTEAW
UniProt Q9D5J6: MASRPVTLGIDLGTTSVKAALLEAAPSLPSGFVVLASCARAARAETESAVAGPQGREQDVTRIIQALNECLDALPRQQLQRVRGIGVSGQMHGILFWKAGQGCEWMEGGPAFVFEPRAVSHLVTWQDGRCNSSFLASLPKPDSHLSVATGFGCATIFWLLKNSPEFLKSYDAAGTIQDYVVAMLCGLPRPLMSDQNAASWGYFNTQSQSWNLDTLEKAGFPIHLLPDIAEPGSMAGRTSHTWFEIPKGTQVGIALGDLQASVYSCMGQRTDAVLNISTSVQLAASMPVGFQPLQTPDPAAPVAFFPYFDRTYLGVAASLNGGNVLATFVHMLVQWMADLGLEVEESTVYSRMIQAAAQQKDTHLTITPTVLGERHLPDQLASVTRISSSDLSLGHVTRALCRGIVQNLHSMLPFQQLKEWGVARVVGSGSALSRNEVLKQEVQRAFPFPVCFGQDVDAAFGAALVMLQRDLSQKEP

Compound: CN[C@@H]1C[C@H]2O[C@@](C)([C@@H]1OC)n1c3ccccc3c3c4c(c5c6ccccc6n2c5c31)C(=O)NC4 [staurosporine]
Assay: log2 fold change of tryptic peptide abundance, ligand vs vehicle (limited proteolysis) (log2 ratio); higher = more trypsin-susceptible (destabilized)
Conditions: ligand concentration: 20 uM; sample: mouse liver crude lysate; replicate design: treated separately

| Target | log2 fold change |
| --- | --- |
| UniProt Q9D662 (peptide sequence: NWADAQSQLR, peptide start residue: 504) | -0.258 |
| UniProt Q9D9I4 (peptide sequence: TAASTFKDFELASTQQRPDMVLR, peptide start residue: 319) | -0.1 |
| UniProt Q9D8C8 (peptide sequence: TRCALEETVAEGLNVPR, peptide start residue: 147) | -0.873 |
| UniProt Q9D7B1 (peptide sequence: TGISAIAVHGR, peptide start residue: 175) | 0.801 |
| UniProt Q9D844 (peptide sequence: SVPTNYYELLGVHPGASAEEIKR, peptide start residue: 33) | -0.489 |
| UniProt Q9D7X3 (peptide sequence: ATDFIDQALAHKNGR, peptide start residue: 105) | -0.0501 |
| UniProt Q9D864 (peptide sequence: EEMVLSGK, peptide start residue: 253) | 0.12 |
| UniProt Q9D3R9 (peptide sequence: GARGPPTPGR, peptide start residue: 64) | -0.286 |
| UniProt Q9D7N9 (peptide sequence: RPLRPQVVTDDGQVPEVK, peptide start residue: 11) | 0.123 |
| UniProt Q9D504 (peptide sequence: KFFPFRGK, peptide start residue: 3) | 0.214 |
| UniProt Q9DAM5 (peptide sequence: YHGIFQAAK, peptide start residue: 59) | 0.0576 |
| UniProt Q9D486 (peptide sequence: LSADTYEDLK, peptide start residue: 747) | -0.394 |
| UniProt Q9D5J6 (peptide sequence: HLPDQLASVTR, peptide start residue: 375) | 0.103 |

Some of the entries so far, with tabs:
Target	log2 fold change
UniProt Q9D3R9 (peptide sequence: GARGPPTPGR, peptide start residue: 64)	-0.286
UniProt Q9D7N9 (peptide sequence: RPLRPQVVTDDGQVPEVK, peptide start residue: 11)	0.123
